In all, about 59,000 compounds went through this assay and about 6,500 (11%) were called active. This list was built around the results that the source calls inconclusive (neither active nor inactive); the mix of calls is not that of the screen. Rule as the data show it: active = max dye-equivalent concentration above about 10 nM; inconclusive = mostly about 1.1 nM to 9.6 nM; inactive = weaker than that.
Test: qHTS Assay for Spectroscopic Profiling in A350 Spectral Region
Details: Compound autofluorescence, 340/450 nm, Alexa 350 dye-equivalents; active compounds read high

Structure (SMILES)	max dye-equivalent concentration
O=C(Oc1ccccc1)N1CCC2(CCN(Cc3nccs3)CC2)CC1	inconclusive: 8.7 nM
COc1cc(CCN)ccc1O	inactive
CCCN1CCc2cc(O)cc3c2[C@H]1Cc1ccc(O)c(O)c1-3	active: 16 nM
O=c1[nH]c(=O)n(Cc2ccc(F)cc2)c(O)c1C=NCc1cccnc1	inconclusive: 2.1 nM
O=C(CCS(=O)(=O)c1ccc(Br)cc1)N1CCC2(CC1)OCCO2	inconclusive: 3.2 nM
CCC(=O)c1cn(Cc2ccccc2C#N)c2ccccc12	inconclusive: 1.1 nM
CC[C@@]1(O)C(=O)OCc2c1cc1n(c2=O)Cc2cc3c(NC(=O)CN)cccc3nc2-1	active: 370 nM
Cc1c2ccncc2c(C)c2c1[nH]c1ccccc12	inconclusive: 2.9 nM
O=C1C2CCN(CC2)C1Cc1ccc(OCCOc2ccccc2)cc1 (stereo not given)	inconclusive: 1.2 nM
CCCCn1c(=O)c(C(=O)Nc2ccccc2S(N)(=O)=O)c(O)c2ccccc21	inconclusive: 3 nM
CCOC(=O)c1ccc(N2C(=O)CC(N3CCC(C#N)(c4ccccc4)CC3)C2=O)cc1 (stereo not given)	inconclusive: 1.4 nM
O=P(O)(OP(=O)(O)c1ccccc1)c1ccccc1 (tested in a mixture with another compound)	inactive
NC(=O)CN1CCCC1=O	inconclusive: 3.2 nM
COc1ccc2c(c1OC)C(=O)OC2c1c(O)n(Cc2ccc(F)cc2)c(=O)[nH]c1=O (stereo not given)	inconclusive: 1.7 nM
CC(=NCc1cccnc1)c1c(O)n(-c2ccc(C)cc2)c(=O)[nH]c1=O	inconclusive: 7.3 nM
CC(=NCCN1CCCCC1)c1c(O)[nH]c(=O)[nH]c1=O	inconclusive: 1.2 nM
CC(C)(C)NC[C@H](O)c1ccccc1Cl	inactive
O=C1NC(=O)C2(Cc3ccccc3N3CCCC32)C(=O)N1c1ccc(Cl)cc1 (stereo not given)	inconclusive: 2.4 nM
CCOC(=O)C1C(=O)N(C)C2(C)CC1c1cc(OC)ccc1O2 (stereo not given)	inconclusive: 2.4 nM
CCCCCCn1c(O)c(C=NCCCn2ccnc2)c(=O)[nH]c1=O	inactive
CC(C)C[C@H]1C(=O)N2CCC[C@@H]2[C@]2(O)O[C@](NC(=O)[C@H]3C=C4c5cccc6[nH]cc(c56)C[C@H]4N(C)C3)(C(C)C)C(=O)N12	inconclusive: 3.6 nM
Cc1cc(CN(C)C)c(OC(=O)N(C)C)cc1C	inconclusive: 8.6 nM

Structure (SMILES)	max dye-equivalent concentration
c1ccc2c(NC3=NCCS3)cccc2c1	inconclusive: 6.4 nM
O=C(Nc1cccc(Cl)c1)c1c(O)c2c(n(Cc3ccco3)c1=O)CCCC2	inconclusive: 2.6 nM
N[C@H](CCl)C(=O)O	inactive
O=C(Nc1ccc2c(c1)OCO2)c1cn(Cc2ccc(F)cc2)nn1	active: 23 nM
CC(C)Cc1[nH]c(=O)c(C#N)c2c1CCC2	active: 17 nM
O=S1(=O)CC2(N3CCOCC3)CCCCCCC21 (stereo not given)	inconclusive: 2.6 nM
CCCNS(=O)(=O)c1ccc(OCC(=O)N2CCN(Cc3ccc4c(c3)OCO4)CC2)cc1	active: 2200 nM
c1ccc2c([C@@H]3CCN(CCN4CCOCC4)C3)c[nH]c2c1	inconclusive: 7 nM
Cc1ccc(S(=O)(=O)N[C@@H](CCCCN)C(=O)CCl)cc1	inconclusive: 10 nM
ClCC[N+]12CC[N+](CCCl)(CC1)C2 (tested in a mixture with another compound)	inactive
CCOc1ccc(-n2c(O)c(C=Nc3ccc(N(CC)CC)cc3)c(=O)[nH]c2=O)cc1	inconclusive: 7 nM
CCOC(=O)C1=C(C)OC(N)=C(C(=O)OCC)[C@@]12C(=O)N(CC(N)=O)c1ccccc12	inconclusive: 8.2 nM
CN(C)c1nc(OCCNC(=O)COc2ccc(Cl)cc2Cl)nc(N2CCCCC2)n1	inconclusive: 8 nM
O=S(=O)(O)/C(=C\c1ccccc1)c1ccccc1 (tested in a mixture with another compound)	inactive
OC(Cc1ccccc1)(c1ccccc1)C1CN2CCC1CC2 (stereo not given)	inconclusive: 1.9 nM
Cc1ccc(C)c(NC(=O)CSc2nnc([C@@H](N)Cc3c[nH]c4ccccc34)o2)c1	inconclusive: 4.3 nM
COc1cc2c3c(c1OC)-c1cc(O)ccc1CC3NCC2 (stereo not given)	inconclusive: 1.5 nM
CCC(C)(C)n1nnnc1C(c1cccs1)N1CC=C(c2ccc(F)cc2)CC1 (stereo not given)	inconclusive: 1.4 nM
COc1ccc(OCC(=O)N2CCN(CC3CC4C=CC3C4)CC2)cc1 (stereo not given)	inactive
N=C(N)n1cc(/C=N\N=C(N)N)cn1	inactive
C[C@@H](CO)NC(=O)[C@H]1C=C2c3cccc4[nH]cc(c34)C[C@H]2N(C)C1	inconclusive: 7.8 nM
Clc1ccc(N2C[C@H]3CC[C@@H](C2)N3)nn1	inactive

Among those listed so far, these contain a cyano group:
Structure (SMILES)	max dye-equivalent concentration
CCC(=O)c1cn(Cc2ccccc2C#N)c2ccccc12	inconclusive: 1.1 nM
CCOC(=O)c1ccc(N2C(=O)CC(N3CCC(C#N)(c4ccccc4)CC3)C2=O)cc1 (stereo not given)	inconclusive: 1.4 nM
CC(C)Cc1[nH]c(=O)c(C#N)c2c1CCC2	active: 17 nM

Next structures.

Structure (SMILES)	max dye-equivalent concentration
COC(=O)N1CCN(C(=O)Cc2ccc(Cl)c(Cl)c2)[C@H](CN2CCCC2)C1	inactive
CC(C)NS(=O)(=O)c1ccc(OCC(=O)N2CCN(Cc3ccccc3)CC2)c(Cl)c1	inactive
CC12CN3CC(C)(CN(C1)C3c1cccs1)C2 (stereo not given)	inconclusive: 1.3 nM
O=S(=O)(NCCO)c1cc[c]([Sb](=[O])([OH])[OH])cc1	active: 63 nM
O=c1[nH]c(=O)n(Cc2ccccc2)c(O)c1C=Nc1ccc(CN2CCOCC2)cc1	active: 200 nM
CC[C@H]1CN2CCc3cc(OC)c(OC)cc3[C@H]2C[C@@H]1C[C@H]1NCCc2c1[nH]c1ccc(O)cc21	inconclusive: 1.8 nM
O=C1NCN(c2ccccc2)C12CCNCC2	inconclusive: 3.6 nM
C[C@H](NC(C)(C)C)C(=O)c1cccc(Cl)c1	inactive
CC1=C2C(=O)[C@@H]3[C@@H](CC=C4C[C@@H](O)CC[C@@]43C)[C@H]2CC[C@@]12O[C@H]1C[C@H](C)CN[C@H]1[C@@H]2C	inactive
C#C[C@@]1(O)CC[C@@H]2[C@@H]3CCC4=CC(=O)CC[C@@]4(C)[C@H]3CC[C@]21C	active: 100 nM
Nc1ccc(CCN2CCN(c3cccc(C(F)(F)F)c3)CC2)cc1	inconclusive: 6.9 nM
Cc1ccccc1NC1=NCC(C)S1 (stereo not given)	inconclusive: 3.5 nM
CC(C)[C@]1(NC(=O)[C@H]2C=C3c4cccc5[nH]cc(c45)C[C@H]3N(C)C2)O[C@@]2(O)[C@H]3CCCN3C(=O)[C@H](Cc3ccccc3)N2C1=O	inconclusive: 1.5 nM
CSC1=NP(=S)(SC)N2CCCC2=C1C#N (stereo not given)	inactive
COc1cc2c(cc1OC)[C@]13CC[N@+]4(C)CC5=CCO[C@H]6CC(=O)N2[C@@H]1[C@@H]6[C@@H]5C[C@]34O	inactive
CCCCc1nc(N2CCNCC2)c(C#N)c2c1CSC(C)(C)C2	inconclusive: 9.3 nM
CC(C)Sc1nnc([C@@H](N)Cc2c[nH]c3ccccc23)o1	inactive
CN1CCN(c2ccc(C(N)=O)cc2N)CC1	inconclusive: 3.6 nM
CN(C)CP(=O)(O)CN(C)C=O	inconclusive: 8 nM
O=C(O)CN1CCN(CC(=O)O)CC(=O)[O][Hg][O]C(=O)C1	inconclusive: 1.3 nM
COC(=O)c1c(C)[nH]c(C(=O)C(Cc2ccccc2)N(C)C)c1C (stereo not given)	inconclusive: 1.9 nM
N[C@H](Cc1ccc2oc3cc(=O)c4ccccc4c-3nc2c1)C(=O)O	inconclusive: 2 nM

Structure (SMILES)	max dye-equivalent concentration
O=C(CN1CC=C(c2ccccc2)CC1)NC(=O)NCc1ccco1	inconclusive: 1.6 nM
CC(C)[C@@]1(NC(=O)[C@@H]2C[C@H]3c4cccc5[nH]cc(c45)C[C@@H]3N(C)C2)O[C@]2(O)[C@H]3CCCN3C(=O)[C@H](Cc3ccccc3)N2C1=O	inactive
CN1CCCC2(CCN(C(=O)c3ccncc3)CC2)C1	inactive
O=S1(=O)N(CCN2CC=C(c3c[nH]c4cc(F)ccc34)CC2)c2cccc3c2N1CCC3	inconclusive: 2.5 nM
CCC(C)N1C(=O)NC(=O)C2(Cc3c(ccc4ccccc34)N(C)C2)C1=O (stereo not given)	inconclusive: 1.1 nM
C=CCn1c(O)c(C(CC)=Nc2ccccc2NC(C)=O)c(=O)[nH]c1=O	inconclusive: 3.4 nM
CC1(C)C2CC=C(CN3CCC(O)CC3)C1C2 (stereo not given)	inconclusive: 4 nM
O=c1[nH]c(=O)n(CCC2=CCCCC2)c(O)c1C=NCCN1CCNCC1	active: 100 nM
O=C1CN=C(c2ccccc2)c2oc3ccc(Br)cc3c2N1	inactive
CCCCCn1c(N)c(C(=O)NCCN2CCOCC2)c2nc3ccccc3nc21	active: 2300 nM
CCN(CC)c1ccc(N=Cc2c(O)n(-c3ccccc3C)c(=O)[nH]c2=O)cc1	active: 1700 nM
CC(C)[C@@]1(NC(=O)[C@@H]2C[C@H]3c4cccc5[nH]cc(c45)C[C@@H]3N(C)C2)O[C@@]2(O)[C@H]3CCCN3C(=O)[C@@H](Cc3ccccc3)N2C1=O	inactive
c1ccc(C2CC2)c(OCC2=NCCN2)c1	inconclusive: 1.1 nM
CN(C)C(=O)Oc1ccc(OC(=O)c2ccccc2)cc1	inactive
CCc1nc(N2CCNCC2)c(C#N)c2c1CSC(C)(C)C2	inconclusive: 5.6 nM
CCCN1CCC[C@H](c2cccc(C#N)c2)C1	inactive
CCn1nc(-c2cccs2)nc2c(=O)n(C)c(=O)nc1-2	inconclusive: 2.2 nM
CN1CCN(CC(=O)Nc2ccc(Cl)cc2C(=O)c2ccccc2)CC1	inconclusive: 1.6 nM
CC(=Nc1ccc2c(c1)CCC2)c1c(O)n(C2CCCCC2)c(=O)[nH]c1=O	inconclusive: 1.1 nM

Individual results from the entries so far:
CCCN1CCC[C@H](c2cccc(C#N)c2)C1 | max dye-equivalent concentration: inactive
CC1=C2C(=O)[C@@H]3[C@@H](CC=C4C[C@@H](O)CC[C@@]43C)[C@H]2CC[C@@]12O[C@H]1C[C@H](C)CN[C@H]1[C@@H]2C | max dye-equivalent concentration: inactive
